Values from PubChem BioAssay AID1259308 (NCATS, 2017)
Test: 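Knock-downs that increase output of a recombinant reporter protein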 (primary screen). Cells: human HEK293 embryonic kidney cells stably expressing firefly luciferase (HEK-CMV-Luc2-Hygro). Reagents: single siRNA against human genes, 0.8 pmol siRNA per well. Duration: 72 h. Detection: 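Luciferase light (ONE-Glo) measured on one replicate plate set and viability (CellTiter-Glo) on the other, scaled to a negative control siRNA, with robust z-scores and luciferase per cell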. Scale: total luciferase, z-score and total luciferase, % of control: higher = more reporter protein produced. Call rule: 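An siRNA counts as active if its total luciferase robust z-score exceeds 3; genes with two or more such siRNAs out of three were retested with fresh siRNAs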. Calls: active = raised luciferase; inactive = no rise.
The deposit covers about 59,000 reagents; shown is an unselected part. In the full data, about 1,510 (2.6%) got an active call. 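Calls use total luciferase alone and ignore viability, so some active siRNAs may act by altering cell number.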 A number with no mark means an inactive call. Reagents against one gene are numbered here. Further read-outs or replicates are left out here. No sequences are given here.

RNF222 (GeneID 643904) #1 gave total luciferase, z-score -0.284; total luciferase, % of control 76.2.
After knock-down of RNF222 (GeneID 643904) #2 the results were total luciferase, z-score 0.57; total luciferase, % of control 93.2.
For RNF222 (GeneID 643904) #3, the values are total luciferase, z-score -1.82; total luciferase, % of control 45.7.
Against CBLL1 (GeneID 79872) #1, the values are total luciferase, z-score -0.878; total luciferase, % of control 64.4.
Depletion of CBLL1 (GeneID 79872) #2 gave: total luciferase, z-score -1.27; total luciferase, % of control 56.5.
For CBLL1 (GeneID 79872) #3 the deposit lists total luciferase, z-score -0.794; total luciferase, % of control 66.1.
FAM131B (GeneID 9715) #1 showed total luciferase, z-score 0.616; total luciferase, % of control 94.1.
For FAM131B (GeneID 9715) #2, the entry reads total luciferase, z-score 1.27; total luciferase, % of control 107.
FAM131B (GeneID 9715) #3 gave total luciferase, z-score -2.36; total luciferase, % of control 34.9.
For HEG1 (GeneID 57493) #1, the entry reads total luciferase, z-score 0.0691; total luciferase, % of control 83.3.
With knock-down of HEG1 (GeneID 57493) #2, the record shows total luciferase, z-score 0.242; total luciferase, % of control 86.7.
Knock-down of HEG1 (GeneID 57493) #3 gave: total luciferase, z-score -0.744; total luciferase, % of control 67.1.
With knock-down of HLA-DOB (GeneID 3112) #1, the screen gave total luciferase, z-score 0.112; total luciferase, % of control 84.1.
Knock-down of HLA-DOB (GeneID 3112) #2 came out at: total luciferase, z-score 0.427; total luciferase, % of control 90.4.
HLA-DOB (GeneID 3112) #3 showed total luciferase, z-score -0.0197; total luciferase, % of control 81.5.
After knock-down of MAPT (GeneID 4137) #1, the screen gave total luciferase, z-score 2.15; total luciferase, % of control 125.
MAPT (GeneID 4137) #2 scored total luciferase, z-score -0.493; total luciferase, % of control 72.1.
MAPT (GeneID 4137) #3 gave total luciferase, z-score -0.387; total luciferase, % of control 74.2.
COP1P1 (GeneID 729391) #1 scored total luciferase, z-score -0.578; total luciferase, % of control 70.4.
Depletion of COP1P1 (GeneID 729391) #2 came out at: total luciferase, z-score 1.93; total luciferase, % of control 120.
Knock-down of COP1P1 (GeneID 729391) #3 gave: total luciferase, z-score 1.06; total luciferase, % of control 103.
